{"source": "patent US20240228647A1", "about": "“OFATUMUMAB FOR TREATING MULTIPLE SCLEROSIS IN ASIAN PATIENTS” (Novartis AG, priority 2021, published 2024)", "test_system": "patients with RMS", "experiment": "Annualized relapse rate (ARR), confirmed relapses, Phase III Studies I and II", "assay_type": "in vivo, human", "conditions": "range over the treatment groups", "experimental": "Ofatumumab was investigated in 1882 patients with RMS from two identical Phase III randomized, double-blind, double-dummy, active-comparator controlled, parallel-group, multicenter studies of identical design (Study I and Study II). Patients were randomized to receive either ofatumumab, OMB (20 mg s.c injections every 4 weeks, after an initial loading regimen of 3 injections on Day 1, 7, and 14), or teriflunomide, TER (14 mg p.o. once a day) as active comparator. For brevity, the teriflunomide data are not shown hereinafter.\nThe maximum treatment duration for an individual patient was 30 study months (approximately 2.5 years). The two studies included a total of 71 patients of Asian race (36 patients in ofatumumab and 35 patients in teriflunomide treatment groups). This Example also includes the Asian patients data from oncology studies (Study A and Study B), as supportive data, where required.\nARR was the primary efficacy endpoint in the pivotal Phase III studies. Treatment with ofatumumab and teriflunomide were both associated with relatively low ARRs. in the Asian subgroups, with 4 to 5 confirmed relapses in any of the treatment groups (ARRs of 0.08-0.09) (Table 2).", "note": "Some results were stated once for a whole list of compounds, not compound by compound."}
{"smiles": "C/C(O)=C(\\C#N)C(=O)Nc1ccc(C(F)(F)F)cc1", "note": "[teriflunomide]", "values": [{"measurement": "ARRs in the Asian subgroups", "value": "0.08-0.09"}]}
